Test results as given in PubChem BioAssay AID1259415 (National Center for Advancing Translational Sciences (NCATS), 2018).
In all, about 410,000 compounds went through this assay and about 18,000 (4.4%) were called active. Inconclusive means that the source gave no clear call. Such entries were picked first, then a sample of the others. Cut-off read from the data, not from the text of the source: active = activity change below about -60%; inconclusive = no clear call, values can overlap the other calls; inactive = above about -39%.

Experiment: qHTS Assay for inhibitors of the human cytomegalovirus (HCMV)
Conditions: HFF cells, HCMV-luciferase reporter, 72 h; at 57.5 µM; stronger effect = lower value
Summary of the method: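 Compounds were evaluated in HFFs infected with an HCMV luciferase reporter virus (MOI 1 PFU/cell). Luciferase in lysates collected 72 h post infection served as the replication measure.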
% is set by controls: 0 for no effect and ±100 for the full control effect.

Row | Compound | activity change, negative = inhibition
1 | COCC1CCCCN1C(=O)c1cc(COc2ccc3ncccc3c2)on1 (stereo not drawn) | active: -83.6%
2 | Cc1ccc(CN2CCC(C(=O)c3ccc(F)cc3)CC2)cc1 | inactive: 16.4%
3 | CC(C)Oc1ccc(CNC(=O)c2cc3cccc4c3n2CC(C)S4)cc1 (stereo not drawn) | inactive: 0%
4 | O=c1oc2c3c4c(cc2s1)CCCN4CCC3 | inconclusive: -45.5%
5 | Cc1ccc(-c2onc(C)c2C)cc1S(=O)(=O)N1CCC(C)CC1 | inconclusive: -50.9%
6 | CCOc1cc([C@@H]2C[C@H]3CN(c4ccccc4)C(=O)[C@]34CCCN24)ccc1OC | active: -68.6%
7 | Cc1ccc2c(c1)C1CN(C)CCC1N2S(=O)(=O)c1cccc(C(F)(F)F)c1 (stereo not drawn) | inconclusive: -49.2%
8 | COc1ccc(C(=O)c2cc([N+](=O)[O-])ccc2N2CCN(C)CC2)cc1 | inactive: -30.2%
9 | Cc1ccc(/C(N)=N/OC(=O)COc2ccc(Cl)c(C)c2)cc1 | inconclusive: -44.7%
10 | Cc1cc(C(=O)CSc2nc(N)cc(=O)[nH]2)c(C)n1Cc1ccco1 | inconclusive: -57.5%
11 | O=C(Nc1nc(-c2ccccc2)cs1)C1CCCN(S(=O)(=O)c2ccccc2)C1 (stereo not drawn) | inconclusive: -40.7%
12 | COc1ccccc1-n1cc(-c2ccccc2)c2c(=S)nc[nH]c21 | active: -68.7%
13 | CS(=O)(=O)c1ncc(Cl)c(C(=O)N2CCN(c3cccc(Cl)c3)CC2)n1 | active: -101%
14 | CCCCCC1C(=O)N2C=C(c3ccccc3)c3ccccc3N2C1=O (stereo not drawn) | inactive: -9.71%
15 | CCc1ccc(OCC(=O)NC(NC(=S)Nc2ccc(C)cc2C)C(Cl)(Cl)Cl)cc1 (stereo not drawn) | active: -63.7%
16 | O=C(Oc1ccc([N+](=O)[O-])cc1)N1CCC(N2CCCCC2)CC1 | inconclusive: -57%
17 | CCOC(=O)c1c(-c2ccccc2)csc1NC(=S)N(CC)CC | inactive: -10.9%
18 | CCOc1ccc(N2C(N)=NC(N)=NC2(C)C)cc1 | active: -68.1%
19 | Cc1nn(CC(=O)N2c3ccccc3NC(=O)C2(C)C)c(C)c1[N+](=O)[O-] | active: -81.8%
20 | CCOc1ccccc1C(=O)Nc1nn[nH]n1 | inconclusive: -41.6%
21 | CCOc1ccc(S(=O)(=O)N(CCO)CCO)cc1-c1nc2c(C(C)(C)C)nn(C)c2c(=O)[nH]1 | inactive: -24.9%
22 | Cn1c(=O)oc2cc(S(=O)(=O)N3CCC(C(=O)N4CCN(c5ccccc5)CC4)CC3)ccc21 | inconclusive: -43.1%

Row | Compound | activity change, negative = inhibition
23 | Cc1cc(N2CCOCC2)nc(SCc2c(Cl)cccc2Cl)n1 | inconclusive: -49.4%
24 | COc1ccc(Nc2ncnc3c2cnn3-c2cc(Cl)ccc2C)cc1OC | inconclusive: -45.2%
25 | c1ccc(N2CCN(c3c4c(nc5ncnn35)CCC4)CC2)cc1 | active: -62.2%
26 | CCOC(=O)c1ccc(N2C(=O)c3[nH]nc(-c4ccc(C)cc4)c3C2c2ccc(O)cc2)cc1 (stereo not drawn) | active: -74%
27 | CCNc1ccc(Br)cc(C(=O)/C=C/c2ccc(Cl)cc2Cl)c1=O | active: -103%
28 | COCCNc1ccc(N2C(=O)CCCC2=O)cc1[N+](=O)[O-] | inconclusive: 0%
29 | COc1cc(SC)ccc1C(=O)Nc1ccncc1 | inconclusive: -45.3%
30 | O=C(COc1ccc2c3c(c(=O)oc2c1)CCC3)Nc1ccccn1 | inactive: -19.4%
31 | CCn1nc(C)c(CNC(=O)c2cc(COc3ccc(F)cc3Cl)on2)c1C | active: -84.9%
32 | O=C(Nc1ccc(Cl)cc1)c1ccc2oc(=O)n(Cc3ccccc3)c2c1 | inconclusive: -45.5%
33 | Cc1ccc(NC(=O)C2COc3ccccc3O2)nc1 (stereo not drawn) | inactive: 85.9%
34 | Cc1c(C(=O)NCc2ccccc2Cl)sc2nc3n(c(=O)c12)CCCC3 | inconclusive: -51.9%
35 | CCOC(=O)N1CCC(NC(=O)c2ccc3c(c2)N(Cc2ccccc2)C(=O)c2ccccc2S3(=O)=O)CC1 | inconclusive: -44.7%
36 | COc1ccc(CCN2C(=O)C=CC2=O)cc1OC | inconclusive: -44.9%
37 | C/C(N)=C(/C#N)C(=O)COc1ncnc2ccccc12 | inactive: 13.8%
38 | O=C(O)c1cccc(N2C(=O)c3cc([N+](=O)[O-])cc4cc([N+](=O)[O-])cc(c34)C2=O)c1 | inactive: -17.9%
39 | CCN(CC(=O)Nc1ccc(NC(C)=O)cc1)CC(=O)Nc1cccc(Cl)c1 | inactive: 15.5%
40 | O=C(CCN1CCCC1=O)NC1CCCc2c1cnn2-c1ccccc1F (stereo not drawn) | inconclusive: -57.6%
41 | Cc1ccc(-c2nnc(SCC(=O)NCCN3C(=O)CSC3=O)n2C)cc1 | inactive: 0%
42 | COc1ccc(OCCCCN2CCC(C)CC2)cc1 | inconclusive: -40.4%
43 | COC(=O)[C@@]1(Cc2ccc(F)cc2)[C@H]2c3cc(C(=O)N4CCCC4)n(Cc4ccc(Cl)c(C(F)(F)F)c4)c3C[C@H]2CN1C(=O)c1ccccc1 | inconclusive: -55.6%

As a working copy, part of the list above.
Row | Compound | activity change, negative = inhibition
23 | Cc1cc(N2CCOCC2)nc(SCc2c(Cl)cccc2Cl)n1 | inconclusive: -49.4%
24 | COc1ccc(Nc2ncnc3c2cnn3-c2cc(Cl)ccc2C)cc1OC | inconclusive: -45.2%
